PubChem BioAssay AID1224827, NIAID – 2016
This is an unselected part of about 3,800 reagents. Over the whole deposit, about 2,200 (57%) are marked active. 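Active means a strong reporter change in either direction; calls are per siRNA, not per gene; qiagen siRNAs gave weaker effects.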 A number with no mark means an inactive call.

Aim: 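Identify regulators of the macrophage TNF-alpha response to bacterial LPS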 (follow-up of hits)
Cell system: RAW264.7 G9 mouse macrophage reporter clone
Reagents: single siRNA against mouse genes, 100 nM siRNA
Time to read-out: siRNA for 2 days, then LPS about 16 h
Challenge: bacterial lipopolysaccharide (LPS), 10 ng/ml, cells fixed after overnight (about 16 h) stimulation
Read-out: 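Imaged nuclear TNF reporter intensity, background removed, scaled per plate and to non-targeting control wells, as z-scores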
Direction: TNF reporter z-score, mean and TNF reporter z-score: higher = stronger Tnf promoter reporter signal; gene median z, three same-vendor siRNAs: higher = stronger Tnf reporter signal for the gene
Rule for the call: 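An siRNA is called active when its mean z-score over replicates is at least +2 or at most -2; control wells get no call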

| gene | PubChem SID | TNF reporter z-score, mean | gene median z, three same-vendor siRNAs | TNF reporter z-score, repeat 1 | TNF reporter z-score, repeat 2 |
| --- | --- | --- | --- | --- | --- |
| Lmcd1 | SID315485493 | 0.0202 | -2.72 | -0.498 | 0.538 |
| Lmcd1 | SID315485494 | -2.72 (active) | -2.72 | -2.12 | -3.32 |
| Lmcd1 | SID315485495 | -5.12 (active) | -2.72 | -5.59 | -4.66 |
| Lmcd1 | SID315485496 | 6.41 (active) | 1.03 | 11.3 | 1.55 |
| Lmcd1 | SID315485497 | 1.98 | 1.03 | 3.45 | 0.508 |
| Lmcd1 | SID315485498 | -2.64 (active) | 1.03 | -2.71 | -2.57 |
| Large2 | SID315488310 | -2.04 (active) | -3.33 | -3.51 | -0.57 |
| Large2 | SID315488311 | -2.94 (active) | -3.33 | -3.14 | -2.73 |
| Large2 | SID315488312 | -4.82 (active) | -3.33 | -5.56 | -4.08 |
| Large2 | SID315488313 | 1.31 | 0.388 | 1.48 | 1.15 |
| Large2 | SID315488314 | 1 | 0.388 | 2.37 | -0.372 |
| Large2 | SID315488315 | -2.2 (active) | 0.388 | -3.01 | -1.38 |
| Plgrkt | SID315486492 | -1.83 | -3.13 | -0.69 | -2.97 |
| Plgrkt | SID315486493 | -3.59 (active) | -3.13 | -3.94 | -3.24 |
| Plgrkt | SID315486494 | -3.84 (active) | -3.13 | -4.66 | -3.02 |
| Plgrkt | SID315486495 | 1.89 | -0.27 | 3.77 | 0.00813 |
| Plgrkt | SID315486496 | -0.368 | -0.27 | -0.0653 | -0.672 |
| Plgrkt | SID315486497 | -0.545 | -0.27 | -0.474 | -0.617 |
| Smad1 | SID315484503 | -2.56 (active) | -3.34 | -2.99 | -2.13 |
| Smad1 | SID315484504 | -3.34 (active) | -3.34 | -2.99 | -3.7 |
| Smad1 | SID315484505 | -5.31 (active) | -3.34 | -4.69 | -5.94 |
| Smad1 | SID315484506 | 1.72 | -0.696 | 3.84 | -0.399 |
| Smad1 | SID315484507 | 0.447 | -0.696 | 1.89 | -0.992 |
| Smad1 | SID315484508 | -3.55 (active) | -0.696 | -3.47 | -3.63 |

In a second layout: results already given.
gene	PubChem SID	TNF reporter z-score, mean	gene median z, three same-vendor siRNAs	TNF reporter z-score, repeat 1	TNF reporter z-score, repeat 2
Lmcd1	SID315485497	1.98	1.03	3.45	0.508
Lmcd1	SID315485498	-2.64 (active)	1.03	-2.71	-2.57
Large2	SID315488310	-2.04 (active)	-3.33	-3.51	-0.57
